According to article PMC11796372:
No constants are given. Whether binding was seen depends on the method and setting. Some binding calls cover weakened binding; strength is not graded here. For some assays here: Sequences can lack the tags named with a protein.

Key:
[1] = biological target: T1, H-NS (E. coli chromosomal nucleoid-structuring protein), full-length, low-copy two-hybrid fusion (E. coli (BW25113, K12)) (UniProt P0ACF8); test: two-hybrid
T1 sequence: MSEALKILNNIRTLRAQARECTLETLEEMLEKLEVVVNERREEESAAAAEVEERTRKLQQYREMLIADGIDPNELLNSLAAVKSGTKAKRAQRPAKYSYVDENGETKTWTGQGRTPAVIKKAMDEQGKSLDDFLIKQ

[2] = biological target: T2, H-NS (M1-G85), truncated H-NS lacking its DNA-binding domain (E. coli (BW25113, K12)) (UniProt P0ACF8); test: two-hybrid; bacterial two-hybrid (split adenylate cyclase, T18 on high-copy pUT18/pUT18C, T25 on low-copy pKT25/pKNT25) in E. coli BTH101; overnight cultures spotted on LB agar with ampicillin, kanamycin, X-gal and IPTG; 30°C, 24 h or 48 h (pUT18C::hha, pUT18C::cnu); blue spot = interaction
T2 sequence: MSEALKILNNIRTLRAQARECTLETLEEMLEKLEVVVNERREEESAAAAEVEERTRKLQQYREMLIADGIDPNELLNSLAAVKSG

[3] = biological target: T2, H-NS (M1-G85), truncated H-NS lacking its DNA-binding domain (E. coli (BW25113, K12)); test: two-hybrid
[4] = biological target: T3, StpA (E. coli paralog of H-NS) (E. coli (BW25113, K12)) (UniProt P0ACG1); test: two-hybrid; bacterial two-hybrid (split adenylate cyclase, T18 on high-copy pUT18/pUT18C, T25 on low-copy pKT25/pKNT25) in E. coli BTH101; overnight cultures spotted on LB agar with ampicillin, kanamycin, X-gal and IPTG; 30°C, 24 h or 48 h (pUT18C::hha, pUT18C::cnu); blue spot = interaction
T3 sequence: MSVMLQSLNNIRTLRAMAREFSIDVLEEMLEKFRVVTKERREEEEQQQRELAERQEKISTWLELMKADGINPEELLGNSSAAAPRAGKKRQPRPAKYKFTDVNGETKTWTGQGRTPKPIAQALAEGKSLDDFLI

B1: StpA (E. coli paralog of H-NS) (protein, UniProt P0ACG1 1-134)
chain: MSVMLQSLNNIRTLRAMAREFSIDVLEEMLEKFRVVTKERREEEEQQQRELAERQEKISTWLELMKADGINPEELLGNSSAAAPRAGKKRQPRPAKYKFTDVNGETKTWTGQGRTPKPIAQALAEGKSLDDFLI
[1]
  binding: binds
[2]
  binding: binds

B2: Hha with the adenylate cyclase fragment fused to its N-terminus (protein, UniProt P0ACE3 1-72)
chain: MSEKPLTKTDYLMRLRRCQTIDTLERVIEKNKYELSDNELAVFYSAADHRLAELTMNKLYDKIPSSVWKFIR
[1]
  binding: binds
[3]
  binding: binds

B3: Hha with the adenylate cyclase fragment fused to its C-terminus (protein, UniProt P0ACE3 1-72)
chain: MSEKPLTKTDYLMRLRRCQTIDTLERVIEKNKYELSDNELAVFYSAADHRLAELTMNKLYDKIPSSVWKFIR
[3]
  binding: binds

B4: Cnu (YdgT), paralog of Hha (protein, UniProt P64467 1-71)
chain: MTVQDYLLKFRKISSLESLEKLYDHLNYTLTDDQELINMYRAADHRRAELVSGGRLFDLGQVPKSVWHYVQ
[1]
  binding: binds
[2]
  binding: binds
[4]
  binding: binds
